The values that follow come from patent publication US20210324061A1 (ARGENX BVBA, published 2021).

The chains behind the UniProt entries cited, without tags or fusion partners. Where a name states a change or a piece, a line headed by the entry shows the natural chain unless it says otherwise.
UniProt Q14392: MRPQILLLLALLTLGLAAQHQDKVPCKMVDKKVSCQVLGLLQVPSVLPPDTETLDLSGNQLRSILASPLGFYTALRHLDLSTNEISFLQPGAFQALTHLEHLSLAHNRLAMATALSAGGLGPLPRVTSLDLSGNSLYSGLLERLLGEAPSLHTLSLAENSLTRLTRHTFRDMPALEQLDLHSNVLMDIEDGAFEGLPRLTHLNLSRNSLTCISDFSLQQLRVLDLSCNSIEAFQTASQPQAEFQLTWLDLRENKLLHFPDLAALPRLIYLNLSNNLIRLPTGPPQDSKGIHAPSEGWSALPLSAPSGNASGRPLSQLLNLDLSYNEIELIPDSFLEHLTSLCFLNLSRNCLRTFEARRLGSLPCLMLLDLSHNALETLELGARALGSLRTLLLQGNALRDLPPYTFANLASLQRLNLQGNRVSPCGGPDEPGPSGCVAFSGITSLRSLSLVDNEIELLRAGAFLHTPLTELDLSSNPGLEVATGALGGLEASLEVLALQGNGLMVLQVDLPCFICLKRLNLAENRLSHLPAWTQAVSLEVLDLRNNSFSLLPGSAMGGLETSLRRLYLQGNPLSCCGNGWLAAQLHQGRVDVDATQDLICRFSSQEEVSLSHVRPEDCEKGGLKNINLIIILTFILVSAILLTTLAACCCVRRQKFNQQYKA
UniProt P01137: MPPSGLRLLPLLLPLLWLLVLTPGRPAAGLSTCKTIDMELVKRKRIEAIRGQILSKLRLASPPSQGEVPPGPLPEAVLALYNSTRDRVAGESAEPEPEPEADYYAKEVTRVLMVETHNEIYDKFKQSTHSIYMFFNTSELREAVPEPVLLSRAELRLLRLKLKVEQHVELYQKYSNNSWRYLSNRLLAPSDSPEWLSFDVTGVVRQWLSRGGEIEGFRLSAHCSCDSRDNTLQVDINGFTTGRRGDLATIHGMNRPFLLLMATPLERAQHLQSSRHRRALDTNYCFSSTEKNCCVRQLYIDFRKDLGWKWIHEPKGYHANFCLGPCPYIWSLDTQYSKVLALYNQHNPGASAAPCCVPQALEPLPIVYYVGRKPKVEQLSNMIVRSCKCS

The target of the assay is recombinant human GARP (human) (UniProt Q14392). Put plainly: ELISA: GARP coated at 1 µg/mL, LAP at 5 µg/mL captured, anti-LAP-HRP. In general terms: In an ELISA, binding on a coated surface is turned into a signal by an enzyme label.

No constants are given. Whether binding was seen depends on the method and setting. Some entries that bind do so weakly or less than the wild type.

In the case of “recombinant latency associated peptide (LAP) of TGF-β (from UniProt P01137 30-278)”, the binding result is recorded as “binds”.
